Assay results taken from the supplement of paper PMC10849652.
This is one part of the list.

Sequences of proteins named here, by UniProt entry; tags and fusion partners are left off. A change or cut given only in a name is not applied to a line headed by its entry.
UniProt O43592: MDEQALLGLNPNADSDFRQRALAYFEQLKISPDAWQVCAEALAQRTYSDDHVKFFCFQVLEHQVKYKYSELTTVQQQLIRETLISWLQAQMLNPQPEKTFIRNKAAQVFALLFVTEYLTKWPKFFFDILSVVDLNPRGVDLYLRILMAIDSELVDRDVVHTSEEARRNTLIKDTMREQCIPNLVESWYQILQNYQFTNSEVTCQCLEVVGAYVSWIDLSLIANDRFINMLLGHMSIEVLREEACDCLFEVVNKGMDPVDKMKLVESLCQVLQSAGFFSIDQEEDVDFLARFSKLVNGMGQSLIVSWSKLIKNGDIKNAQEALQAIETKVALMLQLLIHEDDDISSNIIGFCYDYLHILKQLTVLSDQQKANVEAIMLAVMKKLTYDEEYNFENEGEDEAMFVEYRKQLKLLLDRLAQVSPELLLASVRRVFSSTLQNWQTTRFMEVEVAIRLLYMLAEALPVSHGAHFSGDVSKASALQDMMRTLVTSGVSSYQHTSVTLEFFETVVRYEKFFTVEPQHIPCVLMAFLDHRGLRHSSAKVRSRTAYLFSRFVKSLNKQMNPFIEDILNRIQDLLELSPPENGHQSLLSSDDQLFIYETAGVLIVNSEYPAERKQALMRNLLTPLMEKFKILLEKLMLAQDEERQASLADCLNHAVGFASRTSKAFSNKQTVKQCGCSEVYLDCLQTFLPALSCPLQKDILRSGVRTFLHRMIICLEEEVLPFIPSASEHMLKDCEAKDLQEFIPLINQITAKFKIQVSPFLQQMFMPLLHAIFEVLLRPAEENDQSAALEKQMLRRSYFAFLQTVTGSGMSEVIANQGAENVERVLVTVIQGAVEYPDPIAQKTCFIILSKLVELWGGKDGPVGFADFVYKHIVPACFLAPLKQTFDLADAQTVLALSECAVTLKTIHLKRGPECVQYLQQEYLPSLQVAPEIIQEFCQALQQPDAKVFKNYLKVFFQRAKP
UniProt P67809, whole entry, looked up: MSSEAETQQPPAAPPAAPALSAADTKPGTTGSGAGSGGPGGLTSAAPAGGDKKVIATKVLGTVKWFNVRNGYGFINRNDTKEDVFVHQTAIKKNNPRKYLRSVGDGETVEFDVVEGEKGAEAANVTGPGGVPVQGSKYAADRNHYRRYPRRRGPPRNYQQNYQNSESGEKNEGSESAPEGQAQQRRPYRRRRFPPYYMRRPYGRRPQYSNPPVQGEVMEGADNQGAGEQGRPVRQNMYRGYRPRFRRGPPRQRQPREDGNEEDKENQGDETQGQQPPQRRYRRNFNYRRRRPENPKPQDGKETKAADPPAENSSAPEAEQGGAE
UniProt O75191: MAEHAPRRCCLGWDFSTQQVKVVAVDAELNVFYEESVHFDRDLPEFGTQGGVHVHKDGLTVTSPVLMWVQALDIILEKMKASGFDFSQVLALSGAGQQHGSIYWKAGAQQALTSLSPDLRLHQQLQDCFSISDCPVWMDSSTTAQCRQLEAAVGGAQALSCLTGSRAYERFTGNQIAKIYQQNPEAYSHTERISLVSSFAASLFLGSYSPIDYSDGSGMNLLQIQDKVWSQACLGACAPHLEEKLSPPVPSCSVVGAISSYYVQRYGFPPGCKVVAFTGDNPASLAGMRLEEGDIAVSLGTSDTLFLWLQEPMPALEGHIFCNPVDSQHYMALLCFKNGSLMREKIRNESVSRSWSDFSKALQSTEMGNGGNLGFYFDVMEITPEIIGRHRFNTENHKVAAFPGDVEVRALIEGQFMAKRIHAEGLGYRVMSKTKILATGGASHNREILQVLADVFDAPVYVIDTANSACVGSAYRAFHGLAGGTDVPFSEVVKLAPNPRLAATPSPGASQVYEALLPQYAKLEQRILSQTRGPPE
UniProt Q6NZY4: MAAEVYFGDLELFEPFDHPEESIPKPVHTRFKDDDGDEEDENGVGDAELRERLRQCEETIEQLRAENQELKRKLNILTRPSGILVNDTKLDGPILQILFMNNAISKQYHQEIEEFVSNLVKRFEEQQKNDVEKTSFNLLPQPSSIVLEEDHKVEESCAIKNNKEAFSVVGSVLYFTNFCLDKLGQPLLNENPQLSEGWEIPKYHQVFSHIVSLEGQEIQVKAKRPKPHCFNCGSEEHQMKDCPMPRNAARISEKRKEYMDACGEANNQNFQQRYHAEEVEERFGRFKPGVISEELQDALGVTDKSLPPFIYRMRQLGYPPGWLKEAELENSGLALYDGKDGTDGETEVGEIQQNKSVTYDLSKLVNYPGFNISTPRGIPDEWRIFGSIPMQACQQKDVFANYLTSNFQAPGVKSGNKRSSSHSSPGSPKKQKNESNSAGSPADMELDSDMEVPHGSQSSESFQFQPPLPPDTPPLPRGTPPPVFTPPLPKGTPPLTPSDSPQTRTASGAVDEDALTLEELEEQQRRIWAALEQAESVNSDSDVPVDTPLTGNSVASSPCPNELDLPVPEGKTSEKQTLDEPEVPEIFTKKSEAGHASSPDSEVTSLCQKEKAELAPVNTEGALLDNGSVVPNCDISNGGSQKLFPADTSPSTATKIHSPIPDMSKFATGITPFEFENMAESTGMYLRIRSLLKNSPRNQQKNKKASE
UniProt Q9BSR8: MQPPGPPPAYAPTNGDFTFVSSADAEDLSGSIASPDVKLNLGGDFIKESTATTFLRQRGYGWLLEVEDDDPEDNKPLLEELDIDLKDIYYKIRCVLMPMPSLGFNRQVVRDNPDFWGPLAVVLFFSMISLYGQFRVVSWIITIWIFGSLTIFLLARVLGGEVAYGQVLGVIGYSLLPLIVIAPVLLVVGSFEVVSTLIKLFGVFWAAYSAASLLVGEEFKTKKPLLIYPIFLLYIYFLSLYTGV
UniProt O75152: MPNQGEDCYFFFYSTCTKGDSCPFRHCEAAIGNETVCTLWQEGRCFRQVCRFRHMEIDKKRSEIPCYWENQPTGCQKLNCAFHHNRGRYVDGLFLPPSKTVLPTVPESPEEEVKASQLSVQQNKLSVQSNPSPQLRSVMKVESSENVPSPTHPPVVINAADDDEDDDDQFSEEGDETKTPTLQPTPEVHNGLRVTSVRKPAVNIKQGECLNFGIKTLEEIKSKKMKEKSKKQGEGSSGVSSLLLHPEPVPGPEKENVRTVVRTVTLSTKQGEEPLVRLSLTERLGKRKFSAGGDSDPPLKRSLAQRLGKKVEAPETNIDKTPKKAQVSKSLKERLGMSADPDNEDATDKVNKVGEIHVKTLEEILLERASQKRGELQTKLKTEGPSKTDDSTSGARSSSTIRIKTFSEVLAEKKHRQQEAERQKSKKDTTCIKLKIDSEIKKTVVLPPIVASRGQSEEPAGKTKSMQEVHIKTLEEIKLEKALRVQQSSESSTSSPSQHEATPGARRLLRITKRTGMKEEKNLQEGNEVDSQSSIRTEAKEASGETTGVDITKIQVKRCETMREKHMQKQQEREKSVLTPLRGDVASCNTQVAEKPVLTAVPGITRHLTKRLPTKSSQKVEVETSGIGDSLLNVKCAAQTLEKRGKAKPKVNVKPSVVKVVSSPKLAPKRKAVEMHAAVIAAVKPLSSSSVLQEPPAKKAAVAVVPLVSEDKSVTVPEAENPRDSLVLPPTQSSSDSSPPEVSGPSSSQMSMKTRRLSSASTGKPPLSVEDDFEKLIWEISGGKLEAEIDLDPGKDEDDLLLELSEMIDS
UniProt Q96KR1: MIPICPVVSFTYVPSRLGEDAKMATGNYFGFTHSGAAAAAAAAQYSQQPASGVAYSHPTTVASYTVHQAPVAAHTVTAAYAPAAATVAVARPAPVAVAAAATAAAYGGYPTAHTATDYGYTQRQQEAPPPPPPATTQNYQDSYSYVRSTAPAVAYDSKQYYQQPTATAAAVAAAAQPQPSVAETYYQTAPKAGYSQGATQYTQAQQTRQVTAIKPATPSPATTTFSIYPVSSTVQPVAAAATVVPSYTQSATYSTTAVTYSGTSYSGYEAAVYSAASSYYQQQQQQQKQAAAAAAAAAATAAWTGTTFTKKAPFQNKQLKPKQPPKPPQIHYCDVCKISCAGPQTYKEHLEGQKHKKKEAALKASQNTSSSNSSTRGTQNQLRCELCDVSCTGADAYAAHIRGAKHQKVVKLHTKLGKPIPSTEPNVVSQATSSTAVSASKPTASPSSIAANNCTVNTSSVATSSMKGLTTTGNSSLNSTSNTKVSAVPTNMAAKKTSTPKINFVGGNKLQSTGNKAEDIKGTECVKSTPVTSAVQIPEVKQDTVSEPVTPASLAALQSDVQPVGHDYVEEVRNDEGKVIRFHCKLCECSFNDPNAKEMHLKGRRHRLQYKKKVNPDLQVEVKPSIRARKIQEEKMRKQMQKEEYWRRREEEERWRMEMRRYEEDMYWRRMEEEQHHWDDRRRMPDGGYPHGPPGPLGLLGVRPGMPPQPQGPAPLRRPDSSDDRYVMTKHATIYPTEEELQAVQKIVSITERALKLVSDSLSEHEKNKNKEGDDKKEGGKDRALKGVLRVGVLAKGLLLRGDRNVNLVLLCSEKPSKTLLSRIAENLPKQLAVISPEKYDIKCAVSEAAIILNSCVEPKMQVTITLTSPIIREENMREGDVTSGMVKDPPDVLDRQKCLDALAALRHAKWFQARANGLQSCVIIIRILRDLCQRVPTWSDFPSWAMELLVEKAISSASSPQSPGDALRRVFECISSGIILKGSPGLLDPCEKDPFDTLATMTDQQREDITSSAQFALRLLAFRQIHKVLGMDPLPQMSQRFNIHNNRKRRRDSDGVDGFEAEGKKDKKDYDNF
UniProt Q9Y2Z4: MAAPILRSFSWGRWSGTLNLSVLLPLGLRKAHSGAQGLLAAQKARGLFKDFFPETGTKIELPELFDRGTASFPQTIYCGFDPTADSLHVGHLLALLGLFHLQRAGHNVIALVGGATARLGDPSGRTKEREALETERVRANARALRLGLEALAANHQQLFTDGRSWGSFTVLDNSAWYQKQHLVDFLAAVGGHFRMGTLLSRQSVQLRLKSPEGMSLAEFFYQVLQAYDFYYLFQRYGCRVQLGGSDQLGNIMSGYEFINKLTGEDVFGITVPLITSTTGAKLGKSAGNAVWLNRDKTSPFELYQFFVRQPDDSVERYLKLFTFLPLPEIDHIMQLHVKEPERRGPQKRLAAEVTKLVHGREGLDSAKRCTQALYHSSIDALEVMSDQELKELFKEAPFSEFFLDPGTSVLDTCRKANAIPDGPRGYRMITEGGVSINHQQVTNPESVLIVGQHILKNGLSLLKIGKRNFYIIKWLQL
UniProt A8MPS7: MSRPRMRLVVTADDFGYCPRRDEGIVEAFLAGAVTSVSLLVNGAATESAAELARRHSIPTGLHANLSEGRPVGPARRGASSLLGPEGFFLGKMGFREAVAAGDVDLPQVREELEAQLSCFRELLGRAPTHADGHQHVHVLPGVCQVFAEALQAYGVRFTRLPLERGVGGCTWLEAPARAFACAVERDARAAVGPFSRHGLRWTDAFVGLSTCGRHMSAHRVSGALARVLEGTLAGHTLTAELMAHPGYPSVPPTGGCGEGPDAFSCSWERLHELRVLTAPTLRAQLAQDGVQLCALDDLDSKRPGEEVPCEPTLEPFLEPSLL
UniProt Q8IZ13: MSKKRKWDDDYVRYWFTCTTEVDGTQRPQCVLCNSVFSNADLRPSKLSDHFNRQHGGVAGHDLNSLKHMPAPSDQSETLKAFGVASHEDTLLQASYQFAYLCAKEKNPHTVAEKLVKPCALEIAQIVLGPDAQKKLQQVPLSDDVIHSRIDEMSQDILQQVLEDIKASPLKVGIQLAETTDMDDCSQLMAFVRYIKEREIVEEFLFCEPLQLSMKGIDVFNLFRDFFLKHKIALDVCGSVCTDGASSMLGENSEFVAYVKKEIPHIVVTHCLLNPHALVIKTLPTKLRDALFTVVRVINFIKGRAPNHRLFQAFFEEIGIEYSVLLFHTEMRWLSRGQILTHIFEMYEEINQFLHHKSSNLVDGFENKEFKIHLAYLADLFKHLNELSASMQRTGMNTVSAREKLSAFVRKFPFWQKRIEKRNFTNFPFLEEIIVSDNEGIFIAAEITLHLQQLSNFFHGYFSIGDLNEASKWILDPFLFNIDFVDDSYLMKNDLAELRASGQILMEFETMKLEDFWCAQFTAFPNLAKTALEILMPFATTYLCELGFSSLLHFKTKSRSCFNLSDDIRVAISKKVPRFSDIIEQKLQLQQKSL
UniProt Q9NUE0: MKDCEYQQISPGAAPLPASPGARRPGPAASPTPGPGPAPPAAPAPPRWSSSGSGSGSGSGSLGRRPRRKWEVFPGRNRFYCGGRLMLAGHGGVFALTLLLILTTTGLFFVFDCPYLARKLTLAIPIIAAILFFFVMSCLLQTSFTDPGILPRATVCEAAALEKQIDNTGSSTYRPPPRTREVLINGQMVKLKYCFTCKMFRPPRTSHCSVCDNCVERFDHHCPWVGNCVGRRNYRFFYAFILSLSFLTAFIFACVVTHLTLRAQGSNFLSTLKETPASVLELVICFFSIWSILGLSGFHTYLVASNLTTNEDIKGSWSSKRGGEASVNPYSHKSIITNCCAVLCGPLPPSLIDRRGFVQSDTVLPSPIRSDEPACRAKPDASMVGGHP

Columns and labels:
Assay in all cases: log2 fold change, soluble protein after heating vs DMSO (PISA); higher = thermal stabilisation; K562 lysate, 10 uM; active = over 0.2 and 3.5 SD of the protein, either way, in both replicates (recomputed)
[1] = compound: Cc1cn(-c2cc(NC(=O)c3ccc(C)c(Nc4nccc(-c5cccnc5)n4)c3)cc(C(F)(F)F)c2)cn1 [nilotinib]
Outline: (§1)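 Dounce homogenisation of K562 pellets in PBS pH 7.4 with 1 mM MgCl2 produced a crude extract, used at 1 mg/mL protein. Exposure to 10 μM compound lasted 30 min, and aliquots were then heated for 3 min across 48°C-58°C, pooled and brought to 0.5% NP-40 at 4°C. The supernatant after 21,000xg for 90 min was quantified by TMTpro 16plex LC-MS/MS with channel sums equalised. Duplicate values are given as log-two fold change in thermal stability relative to solvent controls.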

[2] = compound: Cc1nc(Nc2n[nH]c3c2CN(C(=O)N[C@H](CN(C)C)c2ccccc2)C3(C)C)c2sccc2n1
Outline: as §1

[3] = compound: Cc1nc(Nc2ncc(C(=O)Nc3c(C)cccc3Cl)s2)cc(N2CCN(CCO)CC2)n1 [dasatinib]
Outline: as §1

[4] = compound: Cc1ncc(-c2ccnc(Nc3ccc(S(C)(=O)=O)cc3)n2)n1C(C)C
Outline: as §1

[5] = compound: Cn1cc(-c2ccc3c(c2)CCN3C(=O)Cc2cccc(C(F)(F)F)c2)c2c(N)ncnc21
Outline: as §1

[6] = compound: Cn1cc(CNCC2CCN(c3ncc(C(=O)NO)cn3)CC2)c2ccccc21 [quisinostat]
Outline: as §1

[7] = compound: Cn1cncc1[C@@](N)(c1ccc(Cl)cc1)c1ccc2c(c1)c(-c1cccc(Cl)c1)cc(=O)n2C [tipifarnib]
Outline: as §1

[8] = compound: NC(=O)Nc1cc(-c2cccc(F)c2)sc1C(=O)N[C@H]1CCCNC1
Outline: as §1

[9] = compound: NC(=O)c1cnc(N[C@@H]2CCCC[C@@H]2N)nc1Nc1cccc(-n2nccn2)c1
Outline: as §1

[10] = compound: NC1(c2ccc(-c3nc4ccn5c(=O)[nH]nc5c4cc3-c3ccccc3)cc2)CCC1
Outline: as §1

[11] = compound: NCC(=O)Nc1ccc(-n2nc(C(F)(F)F)cc2-c2ccc3c(ccc4ccccc43)c2)cc1
Outline: as §1

[12] = compound: O=C(CCCCCCC(=O)Nc1ccccc1)NO [vorinostat]
Outline: as §1

[13] = compound: O=C(O)c1ccc2c(c1)nc(Nc1cccc(Cl)c1)c1ccncc12 [silmitasertib]
Outline: as §1

[14] = compound: O=C1NC(=O)C(c2cnc3ccccn23)=C1c1cn2c3c(cc(F)cc13)CN(C(=O)N1CCCCC1)CC2
Outline: as §1

[15] = compound: c1cn2cc(-c3ccc4cn[nH]c4c3)nc(Nc3ccc(N4CCOCC4)cc3)c2n1 [entospletinib]
Outline: as §1

Measured: log2 fold change

ZFPM1 (UniProt Q8IX07)
active: [12] -0.251
inactive: [1] 0.036 | [2] -0.075 | [3] -0.087 | [4] 0.042 | [5] 0.095 | [6] -0.189 | [7] 0.044 | [8] 0.034 | [9] -0.082 | [10] -0.018 | [11] -0.009 | [13] 0 | [14] -0.03 | [15] -0.021

ZFYVE19 (UniProt Q96K21)
inactive: [1] 0.014 | [2] -0.001 | [3] 0.007 | [4] 0.053 | [5] -0.041 | [6] -0.01 | [7] 0.006 | [8] -0.003 | [9] 0.014 | [10] 0.003 | [11] 0.026 | [12] 0.105 | [13] 0.002 | [14] 0.01 | [15] -0.012

XPOT (UniProt O43592)
inactive: [1] -0.011 | [2] -0.017 | [3] -0.064 | [4] 0 | [5] -0.004 | [6] -0.056 | [7] 0.005 | [8] 0.037 | [9] 0.003 | [10] -0.001 | [11] -0.012 | [13] 0.035 | [14] 0.009 | [15] 0.037
active: [12] -0.656

YBX1 (UniProt P67809)
inactive: [1] -0.035 | [2] 0.027 | [3] 0.036 | [4] 0.02 | [5] -0.033 | [6] -0.041 | [7] -0.014 | [8] 0.012 | [9] -0.025 | [10] 0.006 | [11] 0.017 | [12] 0.158 | [13] -0.029 | [14] 0.006 | [15] 0.005

XYLB (UniProt O75191)
inactive: [1] 0.082 | [2] 0.024 | [3] 0.015 | [4] -0.027 | [5] -0.095 | [6] 0.024 | [7] 0.07 | [8] -0.017 | [9] -0.006 | [10] -0.029 | [11] 0.12 | [12] -0.146 | [13] 0.006 | [14] 0 | [15] 0.067

ZCCHC8 (UniProt Q6NZY4)
inactive: [1] 0.027 | [2] -0.006 | [3] 0.013 | [4] -0.024 | [5] -0.007 | [6] -0.025 | [7] 0.005 | [8] 0.007 | [9] 0.001 | [10] 0.016 | [11] -0.002 | [12] -0.081 | [13] -0.033 | [14] 0 | [15] 0.017

YIPF4 (UniProt Q9BSR8)
inactive: [1] -0.024 | [2] 0.012 | [3] 0.004 | [4] 0.095 | [5] 0.044 | [6] 0.011 | [7] -0.017 | [8] 0.01 | [9] -0.004 | [10] -0.032 | [11] -0.029 | [12] 0.119 | [13] -0.052 | [14] 0.02 | [15] 0.024

ZDHHC5 (UniProt Q9C0B5)
inactive: [1] -0.019 | [2] 0.104 | [3] 0.026 | [4] 0.045 | [5] -0.027 | [6] -0.021 | [7] 0.006 | [8] -0.007 | [9] 0.009 | [10] 0.025 | [11] 0.005 | [12] 0.109 | [13] 0.01 | [14] 0.009 | [15] -0.048

YARS (UniProt P54577)
inactive: [1] -0.002 | [2] 0.009 | [3] -0.03 | [4] 0.005 | [5] 0.008 | [6] -0.027 | [7] 0.004 | [8] 0.018 | [9] 0.007 | [10] 0.011 | [11] 0.009 | [12] -0.08 | [13] 0.006 | [14] 0 | [15] 0.018

XPO1 (UniProt O14980)
active: [12] -0.233
inactive: [1] 0.011 | [2] -0.011 | [3] -0.038 | [4] -0.014 | [5] 0.021 | [6] -0.007 | [7] -0.009 | [8] 0.021 | [9] 0.011 | [10] 0.006 | [11] 0.009 | [13] 0.003 | [14] -0.001 | [15] 0.036

ZC3H11A (UniProt O75152)
inactive: [1] -0.021 | [2] -0.006 | [3] -0.021 | [4] 0.041 | [5] -0.022 | [6] -0.094 | [7] -0.007 | [8] 0 | [9] 0.004 | [10] 0.035 | [11] 0.123 | [13] -0.026 | [14] 0.062 | [15] -0.009
active: [12] -0.375

ZFR (UniProt Q96KR1)
inactive: [1] -0.099 | [2] 0.024 | [3] 0.018 | [4] 0.023 | [5] 0.052 | [6] 0.011 | [7] 0.001 | [8] -0.006 | [9] 0.005 | [10] 0 | [11] 0.083 | [12] -0.038 | [13] 0.029 | [14] -0.025 | [15] 0.002

ZC3H13 (UniProt Q5T200)
inactive: [1] -0.033 | [2] 0.137 | [3] -0.035 | [4] 0.144 | [5] -0.044 | [6] -0.067 | [7] -0.184 | [8] 0.002 | [9] 0.028 | [10] -0.049 | [11] 0.174 | [12] -0.052 | [13] -0.008 | [14] -0.104 | [15] 0.001

YLPM1 (UniProt P49750)
inactive: [1] -0.023 | [2] -0.192 | [3] 0.018 | [5] 0.021 | [6] -0.015 | [7] -0.011 | [8] 0.033 | [9] 0.041 | [10] -0.013 | [11] 0.013 | [12] -0.126 | [13] -0.011 | [14] 0.017 | [15] -0.004
active: [4] -0.384

YARS2 (UniProt Q9Y2Z4)
inactive: [1] -0.005 | [2] -0.041 | [3] -0.041 | [4] 0.041 | [5] -0.002 | [6] -0.012 | [7] -0.054 | [8] 0.031 | [9] -0.014 | [10] 0.027 | [11] -0.045 | [12] -0.132 | [13] 0.021 | [14] 0.004 | [15] 0.028

YDJC (UniProt A8MPS7)
inactive: [1] -0.027 | [2] 0.045 | [3] -0.1 | [4] -0.044 | [5] -0.02 | [6] -0.03 | [7] -0.045 | [8] -0.001 | [9] 0.021 | [10] 0.074 | [11] 0.048 | [13] 0.023 | [14] -0.051 | [15] 0.051
active: [12] -0.443

ZC3H14 (UniProt Q6PJT7)
inactive: [1] -0.064 | [2] -0.042 | [3] -0.054 | [4] 0.01 | [5] -0.049 | [6] -0.028 | [7] -0.051 | [8] 0.001 | [9] -0.009 | [10] 0.002 | [11] 0.009 | [12] -0.088 | [13] 0.028 | [14] 0.028 | [15] -0.028

ZBED8 (UniProt Q8IZ13)
inactive: [1] -0.018 | [2] -0.066 | [3] -0.041 | [4] -0.05 | [5] 0.071 | [6] 0.006 | [7] 0.035 | [8] 0.056 | [9] 0.02 | [10] -0.008 | [11] -0.03 | [12] -0.101 | [13] -0.032 | [14] 0.022 | [15] 0

XRN2 (UniProt Q9H0D6)
inactive: [1] 0.011 | [2] 0.016 | [3] 0.008 | [4] -0.001 | [5] 0.015 | [6] -0.012 | [7] -0.022 | [8] 0.007 | [9] 0 | [10] -0.035 | [11] -0.059 | [12] 0.026 | [13] -0.037 | [14] -0.035 | [15] -0.027

ZC3H4 (UniProt Q9UPT8)
inactive: [1] 0.035 | [2] -0.007 | [3] 0.049 | [4] 0.009 | [5] -0.007 | [6] -0.057 | [7] 0.003 | [8] 0.014 | [9] -0.005 | [10] -0.037 | [11] 0.037 | [12] 0.078 | [13] -0.079 | [14] 0.043 | [15] -0.02

ZDHHC18 (UniProt Q9NUE0)
inactive: [1] 0.067 | [2] -0.329 | [3] 0.176 | [4] -0.047 | [5] -0.158 | [6] -0.008 | [7] 0.177 | [8] 0.008 | [9] 0.059 | [10] 0.067 | [11] -0.064 | [12] -0.162 | [13] 0.163 | [14] 0.009 | [15] 0.034
